Data: paper PMC4646279
These are yes or no findings as the source states them, for the method shown. Binding seen in cells or lysates may run through a third protein. Some results given as binding are weak or reduced against the parent protein; the word gives no strength. For some assays here: Where a sequence is shown, tags or fusion partners need not be part of it.

Chains of the proteins cited; added tags and fusions are not shown. Residues count along the entry.
UniProt P17655, residues 20-700: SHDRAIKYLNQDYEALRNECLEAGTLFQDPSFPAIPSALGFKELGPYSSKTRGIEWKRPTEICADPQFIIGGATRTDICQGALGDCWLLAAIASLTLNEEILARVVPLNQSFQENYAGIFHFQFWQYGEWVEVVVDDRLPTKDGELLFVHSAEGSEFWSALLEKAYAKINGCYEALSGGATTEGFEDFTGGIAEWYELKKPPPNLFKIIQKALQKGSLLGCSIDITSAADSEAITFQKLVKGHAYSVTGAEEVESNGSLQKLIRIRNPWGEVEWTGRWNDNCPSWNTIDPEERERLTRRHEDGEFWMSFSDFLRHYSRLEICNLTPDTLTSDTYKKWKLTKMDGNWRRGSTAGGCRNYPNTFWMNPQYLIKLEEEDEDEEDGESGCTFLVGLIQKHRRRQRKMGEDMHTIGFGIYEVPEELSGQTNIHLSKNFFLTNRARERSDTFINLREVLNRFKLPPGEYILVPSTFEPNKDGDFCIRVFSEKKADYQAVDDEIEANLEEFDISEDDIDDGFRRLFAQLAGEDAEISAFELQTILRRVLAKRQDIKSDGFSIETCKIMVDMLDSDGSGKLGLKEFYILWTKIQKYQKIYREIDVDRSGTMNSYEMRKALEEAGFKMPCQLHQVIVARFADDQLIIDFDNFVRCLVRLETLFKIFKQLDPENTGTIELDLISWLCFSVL
UniProt P07384: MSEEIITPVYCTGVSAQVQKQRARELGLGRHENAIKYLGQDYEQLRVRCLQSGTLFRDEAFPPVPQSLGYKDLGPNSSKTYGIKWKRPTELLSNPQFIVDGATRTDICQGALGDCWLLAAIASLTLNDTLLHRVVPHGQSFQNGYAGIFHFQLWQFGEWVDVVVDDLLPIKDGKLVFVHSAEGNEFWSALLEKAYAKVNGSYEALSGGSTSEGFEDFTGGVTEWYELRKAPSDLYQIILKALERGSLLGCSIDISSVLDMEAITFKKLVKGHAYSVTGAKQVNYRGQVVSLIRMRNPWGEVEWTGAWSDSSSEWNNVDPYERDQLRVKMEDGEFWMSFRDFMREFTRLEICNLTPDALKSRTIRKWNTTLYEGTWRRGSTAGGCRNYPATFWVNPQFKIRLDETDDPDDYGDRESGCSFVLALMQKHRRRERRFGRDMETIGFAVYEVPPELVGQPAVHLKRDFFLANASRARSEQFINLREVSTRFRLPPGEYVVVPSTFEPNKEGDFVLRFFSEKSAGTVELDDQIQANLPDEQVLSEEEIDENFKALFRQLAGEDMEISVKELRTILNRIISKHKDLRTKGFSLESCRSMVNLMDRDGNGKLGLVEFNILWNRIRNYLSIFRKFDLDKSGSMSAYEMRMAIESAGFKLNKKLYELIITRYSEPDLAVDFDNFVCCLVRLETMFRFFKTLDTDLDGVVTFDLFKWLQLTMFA
UniProt Q9P2J5: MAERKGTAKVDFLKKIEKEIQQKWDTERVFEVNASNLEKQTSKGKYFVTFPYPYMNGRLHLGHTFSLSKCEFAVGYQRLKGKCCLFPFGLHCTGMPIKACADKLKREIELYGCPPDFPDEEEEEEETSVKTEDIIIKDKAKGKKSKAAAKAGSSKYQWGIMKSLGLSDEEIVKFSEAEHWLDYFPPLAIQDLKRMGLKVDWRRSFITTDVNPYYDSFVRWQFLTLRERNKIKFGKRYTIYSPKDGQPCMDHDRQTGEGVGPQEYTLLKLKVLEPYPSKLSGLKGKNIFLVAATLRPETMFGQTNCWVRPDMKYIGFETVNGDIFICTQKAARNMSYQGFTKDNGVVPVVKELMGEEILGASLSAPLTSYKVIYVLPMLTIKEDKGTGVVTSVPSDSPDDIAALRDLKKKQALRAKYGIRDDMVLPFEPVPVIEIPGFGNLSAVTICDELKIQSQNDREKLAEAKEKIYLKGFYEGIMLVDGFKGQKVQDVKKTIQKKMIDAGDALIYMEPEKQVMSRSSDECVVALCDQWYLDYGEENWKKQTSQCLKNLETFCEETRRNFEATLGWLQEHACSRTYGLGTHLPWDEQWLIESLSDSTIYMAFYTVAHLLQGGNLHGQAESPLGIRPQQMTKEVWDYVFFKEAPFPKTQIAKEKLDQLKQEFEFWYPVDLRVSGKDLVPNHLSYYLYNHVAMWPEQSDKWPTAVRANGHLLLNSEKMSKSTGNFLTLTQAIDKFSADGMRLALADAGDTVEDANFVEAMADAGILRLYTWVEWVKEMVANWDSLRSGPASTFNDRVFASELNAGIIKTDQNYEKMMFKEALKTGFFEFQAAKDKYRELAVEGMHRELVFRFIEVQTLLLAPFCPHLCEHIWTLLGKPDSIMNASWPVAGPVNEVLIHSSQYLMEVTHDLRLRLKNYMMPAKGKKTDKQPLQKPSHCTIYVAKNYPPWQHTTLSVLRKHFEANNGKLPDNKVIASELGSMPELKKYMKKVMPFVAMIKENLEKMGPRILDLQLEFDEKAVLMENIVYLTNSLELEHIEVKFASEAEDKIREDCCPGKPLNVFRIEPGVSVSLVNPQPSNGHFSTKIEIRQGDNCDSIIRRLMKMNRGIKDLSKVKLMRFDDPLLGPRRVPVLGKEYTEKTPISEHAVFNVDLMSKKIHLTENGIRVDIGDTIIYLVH
UniProt P07814: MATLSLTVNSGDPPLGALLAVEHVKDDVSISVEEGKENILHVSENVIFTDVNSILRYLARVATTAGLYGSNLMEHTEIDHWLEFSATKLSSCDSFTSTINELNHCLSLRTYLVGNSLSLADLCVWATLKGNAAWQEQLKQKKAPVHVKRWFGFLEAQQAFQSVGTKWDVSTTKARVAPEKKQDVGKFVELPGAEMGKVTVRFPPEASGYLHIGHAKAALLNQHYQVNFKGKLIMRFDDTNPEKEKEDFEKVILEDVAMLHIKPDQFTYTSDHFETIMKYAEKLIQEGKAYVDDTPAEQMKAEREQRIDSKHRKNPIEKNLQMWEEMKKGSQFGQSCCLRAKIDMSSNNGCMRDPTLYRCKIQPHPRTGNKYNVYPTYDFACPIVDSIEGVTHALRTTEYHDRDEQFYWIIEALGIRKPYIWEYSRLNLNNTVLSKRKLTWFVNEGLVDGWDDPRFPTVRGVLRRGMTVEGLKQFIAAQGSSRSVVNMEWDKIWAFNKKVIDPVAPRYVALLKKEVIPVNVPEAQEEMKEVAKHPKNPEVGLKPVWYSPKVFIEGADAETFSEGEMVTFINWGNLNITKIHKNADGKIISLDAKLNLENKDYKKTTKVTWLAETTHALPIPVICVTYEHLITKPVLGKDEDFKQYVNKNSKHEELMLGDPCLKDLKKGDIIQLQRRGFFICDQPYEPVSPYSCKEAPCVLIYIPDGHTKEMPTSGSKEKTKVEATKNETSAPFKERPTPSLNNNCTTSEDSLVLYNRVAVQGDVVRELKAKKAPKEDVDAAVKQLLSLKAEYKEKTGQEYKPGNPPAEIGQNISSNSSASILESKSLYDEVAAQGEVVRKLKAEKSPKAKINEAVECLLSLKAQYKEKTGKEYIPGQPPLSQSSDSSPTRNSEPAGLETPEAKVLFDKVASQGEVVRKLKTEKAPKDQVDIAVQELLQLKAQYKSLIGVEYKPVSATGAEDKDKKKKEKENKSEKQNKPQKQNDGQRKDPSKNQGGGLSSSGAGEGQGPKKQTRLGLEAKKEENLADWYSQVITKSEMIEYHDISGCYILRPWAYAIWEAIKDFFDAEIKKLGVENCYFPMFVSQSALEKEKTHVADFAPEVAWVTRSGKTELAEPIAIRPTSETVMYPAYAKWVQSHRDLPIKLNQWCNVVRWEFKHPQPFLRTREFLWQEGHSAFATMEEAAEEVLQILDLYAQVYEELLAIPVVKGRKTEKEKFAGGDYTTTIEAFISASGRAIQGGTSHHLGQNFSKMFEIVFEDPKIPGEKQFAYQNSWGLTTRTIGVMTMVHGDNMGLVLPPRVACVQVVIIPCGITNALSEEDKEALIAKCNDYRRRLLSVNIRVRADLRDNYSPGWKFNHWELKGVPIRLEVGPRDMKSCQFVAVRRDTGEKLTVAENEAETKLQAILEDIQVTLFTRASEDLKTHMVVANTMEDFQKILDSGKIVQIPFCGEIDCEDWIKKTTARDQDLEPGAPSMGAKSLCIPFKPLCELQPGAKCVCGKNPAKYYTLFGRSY
UniProt P41252: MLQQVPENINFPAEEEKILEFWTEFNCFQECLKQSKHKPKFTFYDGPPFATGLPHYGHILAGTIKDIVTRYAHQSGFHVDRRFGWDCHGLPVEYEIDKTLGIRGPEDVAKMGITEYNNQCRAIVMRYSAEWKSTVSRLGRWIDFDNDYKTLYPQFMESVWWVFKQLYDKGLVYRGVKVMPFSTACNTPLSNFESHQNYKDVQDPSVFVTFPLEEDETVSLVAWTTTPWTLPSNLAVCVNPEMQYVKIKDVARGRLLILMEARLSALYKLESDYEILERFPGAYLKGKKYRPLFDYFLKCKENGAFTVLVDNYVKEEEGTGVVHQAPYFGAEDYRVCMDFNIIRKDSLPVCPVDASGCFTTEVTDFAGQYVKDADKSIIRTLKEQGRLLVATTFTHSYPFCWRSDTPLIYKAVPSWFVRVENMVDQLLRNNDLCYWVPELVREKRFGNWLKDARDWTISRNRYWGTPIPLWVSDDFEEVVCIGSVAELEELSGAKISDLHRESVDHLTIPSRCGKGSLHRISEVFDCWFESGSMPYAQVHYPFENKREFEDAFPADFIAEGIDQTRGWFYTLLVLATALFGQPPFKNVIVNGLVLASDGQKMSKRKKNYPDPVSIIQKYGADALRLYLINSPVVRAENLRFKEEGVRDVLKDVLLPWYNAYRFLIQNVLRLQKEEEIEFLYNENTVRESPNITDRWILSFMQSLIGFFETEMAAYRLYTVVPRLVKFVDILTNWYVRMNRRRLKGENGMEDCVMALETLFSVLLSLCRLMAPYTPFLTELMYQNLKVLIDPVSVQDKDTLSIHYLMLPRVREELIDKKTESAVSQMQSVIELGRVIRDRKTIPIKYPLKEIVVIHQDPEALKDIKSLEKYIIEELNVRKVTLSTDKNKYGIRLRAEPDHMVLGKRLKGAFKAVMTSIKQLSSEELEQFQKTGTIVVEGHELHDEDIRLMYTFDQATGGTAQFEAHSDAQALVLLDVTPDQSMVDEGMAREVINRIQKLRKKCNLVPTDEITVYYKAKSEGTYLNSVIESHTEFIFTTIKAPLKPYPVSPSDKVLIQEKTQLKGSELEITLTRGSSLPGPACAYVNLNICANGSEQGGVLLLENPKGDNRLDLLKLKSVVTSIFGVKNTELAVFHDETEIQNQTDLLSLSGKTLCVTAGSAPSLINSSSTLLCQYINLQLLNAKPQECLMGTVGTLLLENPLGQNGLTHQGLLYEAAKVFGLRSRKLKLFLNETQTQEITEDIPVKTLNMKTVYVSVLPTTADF
UniProt Q15046: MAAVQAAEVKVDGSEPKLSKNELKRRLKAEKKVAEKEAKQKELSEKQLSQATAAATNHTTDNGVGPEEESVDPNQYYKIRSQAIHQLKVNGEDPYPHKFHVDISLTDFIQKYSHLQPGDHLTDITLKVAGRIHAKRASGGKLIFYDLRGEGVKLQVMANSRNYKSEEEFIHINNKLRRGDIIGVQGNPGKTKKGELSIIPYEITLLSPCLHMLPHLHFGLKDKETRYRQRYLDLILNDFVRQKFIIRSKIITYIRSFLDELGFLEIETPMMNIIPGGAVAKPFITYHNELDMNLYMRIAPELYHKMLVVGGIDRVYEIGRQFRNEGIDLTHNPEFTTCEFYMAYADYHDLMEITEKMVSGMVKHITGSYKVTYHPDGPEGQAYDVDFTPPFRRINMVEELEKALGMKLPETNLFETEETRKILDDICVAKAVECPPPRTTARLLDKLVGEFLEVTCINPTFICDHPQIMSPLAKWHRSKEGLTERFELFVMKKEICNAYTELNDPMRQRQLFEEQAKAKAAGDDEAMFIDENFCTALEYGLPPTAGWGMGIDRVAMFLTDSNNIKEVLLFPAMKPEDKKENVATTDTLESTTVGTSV

Legend:
FLAG-calpain 2 (human) [1] = molecular target: FLAG-calpain 2 (human) (UniProt P17655); assay: co-IP; FLAG-calpain 2 co-overexpressed with Myc-LeuRS in 293T; clarified lysate, IP with anti-FLAG antibody, Western blot with anti-Myc; mouse IgG as negative control
FLAG-ArgRSΔN63 (human) = molecular target: T1, FLAG-ArgRSΔN63 (human) (UniProt P54136); assay: co-IP; 293T extracts overexpressing FLAG-tagged full-length or truncated ArgRS, p43 or GlnRS; IP with FLAG antibody, Western blot with antibodies against MSC components
T1 sequence: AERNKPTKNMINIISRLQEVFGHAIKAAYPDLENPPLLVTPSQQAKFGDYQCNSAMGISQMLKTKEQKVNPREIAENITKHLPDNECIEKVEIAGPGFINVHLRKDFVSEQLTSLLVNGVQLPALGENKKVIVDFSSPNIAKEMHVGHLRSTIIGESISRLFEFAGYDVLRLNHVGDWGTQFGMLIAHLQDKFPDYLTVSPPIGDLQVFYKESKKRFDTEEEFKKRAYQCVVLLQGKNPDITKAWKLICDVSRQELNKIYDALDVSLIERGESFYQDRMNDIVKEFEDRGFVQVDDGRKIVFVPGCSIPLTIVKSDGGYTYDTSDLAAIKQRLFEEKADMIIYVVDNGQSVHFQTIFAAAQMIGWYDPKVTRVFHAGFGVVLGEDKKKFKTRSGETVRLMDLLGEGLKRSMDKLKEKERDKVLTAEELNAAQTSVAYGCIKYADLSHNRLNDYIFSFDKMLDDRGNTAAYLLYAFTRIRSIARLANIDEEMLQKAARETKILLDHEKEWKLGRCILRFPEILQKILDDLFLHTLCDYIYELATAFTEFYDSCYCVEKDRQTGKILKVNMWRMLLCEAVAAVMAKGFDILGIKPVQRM

[2] = molecular target: T2, p43-N106 with C-terminal FLAG tag (human) (UniProt Q12904); assay: as above
T2 sequence: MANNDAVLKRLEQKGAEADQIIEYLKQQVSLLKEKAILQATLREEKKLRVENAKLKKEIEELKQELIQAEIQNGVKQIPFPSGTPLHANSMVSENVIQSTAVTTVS

[3] = molecular target: T3, p43ΔN106 with C-terminal FLAG tag (human) (UniProt Q12904); assay: as above
T3 sequence: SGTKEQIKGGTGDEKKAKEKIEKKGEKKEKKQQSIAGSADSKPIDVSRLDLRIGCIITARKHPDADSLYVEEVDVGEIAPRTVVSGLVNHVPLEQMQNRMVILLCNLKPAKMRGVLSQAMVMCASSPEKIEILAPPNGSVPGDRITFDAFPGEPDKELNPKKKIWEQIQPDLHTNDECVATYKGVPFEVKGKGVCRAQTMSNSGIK

FLAG-calpain 1 (human) = FLAG-calpain 1 (human) (UniProt P07384); assay: co-IP; FLAG-calpain 2 or FLAG-calpain 1 overexpressed in 293T; IP with anti-FLAG antibody, Western blot with antibodies against endogenous MSC components; mouse IgG as negative control
FLAG-calpain 2 (human) [4] = molecular target: FLAG-calpain 2 (human) (UniProt P17655); assay: as above
FLAG-p43 (human) = molecular target: T4, FLAG-p43 (human) (UniProt Q12904); assay: co-IP; MSC purification: 293T transfected with FLAG-ArgRS or FLAG-p43, lysate on anti-FLAG M2 affinity gel 2 h at 4 °C, washed with PBS four times, eluted with 3xFLAG peptides; Coomassie staining and Western blots
T4 sequence: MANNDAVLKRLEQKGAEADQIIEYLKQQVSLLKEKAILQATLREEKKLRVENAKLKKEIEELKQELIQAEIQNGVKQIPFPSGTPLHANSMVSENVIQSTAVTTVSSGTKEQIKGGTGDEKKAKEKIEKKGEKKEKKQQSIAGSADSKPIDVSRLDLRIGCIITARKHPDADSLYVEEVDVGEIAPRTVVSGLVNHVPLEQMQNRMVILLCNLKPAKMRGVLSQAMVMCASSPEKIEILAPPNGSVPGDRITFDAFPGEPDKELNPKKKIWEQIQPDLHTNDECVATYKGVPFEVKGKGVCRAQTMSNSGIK

FLAG-calpain 2 (human) [5] = molecular target: FLAG-calpain 2 (human) (UniProt P17655); assay: co-IP; data not shown; FLAG-calpain 2 overexpressed in 293T, co-immunoprecipitation

Row | Substance | binding (FLAG-calpain 2 (human) [1]) | binding (FLAG-ArgRSΔN63 (human)) | binding [2] | binding [3] | binding (FLAG-calpain 1 (human)) | binding (FLAG-calpain 2 (human) [4]) | binding (FLAG-p43 (human)) | binding (FLAG-calpain 2 (human) [5])
1 | Myc-LeuRS (from UniProt Q9P2J5 1-1176) (enzyme) | binds | – | – | – | – | – | – | –
2 | glutamylprolyl-tRNA synthetase (EPRS), endogenous (from UniProt P07814 1-1512) (enzyme) | – | no binding | binds | no binding | no binding | binds | binds | –
3 | isoleucyl-tRNA synthetase (IleRS), endogenous (from UniProt P41252 1-1262) (enzyme) | – | – | – | – | – | – | binds | –
4 | leucyl-tRNA synthetase (LeuRS), endogenous (from UniProt Q9P2J5 1-1176) (enzyme) | – | – | – | – | no binding | – | – | binds
5 | lysyl-tRNA synthetase (LysRS), endogenous (from UniProt Q15046 1-597) (enzyme) | – | – | binds | no binding | binds weakly | binds | – | –
